These are yes or no findings as the source states them, for the method shown. In cells and extracts the contact can be indirect. Some binding calls cover weakened binding; strength is not graded here.
How the values were obtained:
[1] = target: CaV2.2α1 subunit of the N-type calcium channel, GFP-tagged (rabbit) (UniProt Q05152); test: co-IP; lysates (RIPA buffer) of co-transfected HEK-293 cells; 1 mg protein with 3-5 ug specific or control (IgG0) antibody overnight at 4°C, rProtein G agarose, Western blot
[2] = target: Parkin, endogenous in rat brain (rat (endogenous in rat brain)) (UniProt Q9JK66); test: co-IP; rat brain tissue lysate (RIPA buffer); 1 mg protein with 3-5 ug specific or control antibody overnight at 4°C, rProtein G agarose, Western blot
[3] = target: ubiquitin-protein ligase E3A (UBE3A), HA-tagged (human) (UniProt Q05086); test: co-IP; lysates (RIPA buffer) of co-transfected HEK-293 cells; 1 mg protein with 3-5 ug specific or control (IgG0) antibody overnight at 4°C, rProtein G agarose, Western blot

Sequences of proteins named here, by UniProt entry; tags and fusion partners are left off. A change or cut given only in a name is not applied to a line headed by its entry.
UniProt Q05152: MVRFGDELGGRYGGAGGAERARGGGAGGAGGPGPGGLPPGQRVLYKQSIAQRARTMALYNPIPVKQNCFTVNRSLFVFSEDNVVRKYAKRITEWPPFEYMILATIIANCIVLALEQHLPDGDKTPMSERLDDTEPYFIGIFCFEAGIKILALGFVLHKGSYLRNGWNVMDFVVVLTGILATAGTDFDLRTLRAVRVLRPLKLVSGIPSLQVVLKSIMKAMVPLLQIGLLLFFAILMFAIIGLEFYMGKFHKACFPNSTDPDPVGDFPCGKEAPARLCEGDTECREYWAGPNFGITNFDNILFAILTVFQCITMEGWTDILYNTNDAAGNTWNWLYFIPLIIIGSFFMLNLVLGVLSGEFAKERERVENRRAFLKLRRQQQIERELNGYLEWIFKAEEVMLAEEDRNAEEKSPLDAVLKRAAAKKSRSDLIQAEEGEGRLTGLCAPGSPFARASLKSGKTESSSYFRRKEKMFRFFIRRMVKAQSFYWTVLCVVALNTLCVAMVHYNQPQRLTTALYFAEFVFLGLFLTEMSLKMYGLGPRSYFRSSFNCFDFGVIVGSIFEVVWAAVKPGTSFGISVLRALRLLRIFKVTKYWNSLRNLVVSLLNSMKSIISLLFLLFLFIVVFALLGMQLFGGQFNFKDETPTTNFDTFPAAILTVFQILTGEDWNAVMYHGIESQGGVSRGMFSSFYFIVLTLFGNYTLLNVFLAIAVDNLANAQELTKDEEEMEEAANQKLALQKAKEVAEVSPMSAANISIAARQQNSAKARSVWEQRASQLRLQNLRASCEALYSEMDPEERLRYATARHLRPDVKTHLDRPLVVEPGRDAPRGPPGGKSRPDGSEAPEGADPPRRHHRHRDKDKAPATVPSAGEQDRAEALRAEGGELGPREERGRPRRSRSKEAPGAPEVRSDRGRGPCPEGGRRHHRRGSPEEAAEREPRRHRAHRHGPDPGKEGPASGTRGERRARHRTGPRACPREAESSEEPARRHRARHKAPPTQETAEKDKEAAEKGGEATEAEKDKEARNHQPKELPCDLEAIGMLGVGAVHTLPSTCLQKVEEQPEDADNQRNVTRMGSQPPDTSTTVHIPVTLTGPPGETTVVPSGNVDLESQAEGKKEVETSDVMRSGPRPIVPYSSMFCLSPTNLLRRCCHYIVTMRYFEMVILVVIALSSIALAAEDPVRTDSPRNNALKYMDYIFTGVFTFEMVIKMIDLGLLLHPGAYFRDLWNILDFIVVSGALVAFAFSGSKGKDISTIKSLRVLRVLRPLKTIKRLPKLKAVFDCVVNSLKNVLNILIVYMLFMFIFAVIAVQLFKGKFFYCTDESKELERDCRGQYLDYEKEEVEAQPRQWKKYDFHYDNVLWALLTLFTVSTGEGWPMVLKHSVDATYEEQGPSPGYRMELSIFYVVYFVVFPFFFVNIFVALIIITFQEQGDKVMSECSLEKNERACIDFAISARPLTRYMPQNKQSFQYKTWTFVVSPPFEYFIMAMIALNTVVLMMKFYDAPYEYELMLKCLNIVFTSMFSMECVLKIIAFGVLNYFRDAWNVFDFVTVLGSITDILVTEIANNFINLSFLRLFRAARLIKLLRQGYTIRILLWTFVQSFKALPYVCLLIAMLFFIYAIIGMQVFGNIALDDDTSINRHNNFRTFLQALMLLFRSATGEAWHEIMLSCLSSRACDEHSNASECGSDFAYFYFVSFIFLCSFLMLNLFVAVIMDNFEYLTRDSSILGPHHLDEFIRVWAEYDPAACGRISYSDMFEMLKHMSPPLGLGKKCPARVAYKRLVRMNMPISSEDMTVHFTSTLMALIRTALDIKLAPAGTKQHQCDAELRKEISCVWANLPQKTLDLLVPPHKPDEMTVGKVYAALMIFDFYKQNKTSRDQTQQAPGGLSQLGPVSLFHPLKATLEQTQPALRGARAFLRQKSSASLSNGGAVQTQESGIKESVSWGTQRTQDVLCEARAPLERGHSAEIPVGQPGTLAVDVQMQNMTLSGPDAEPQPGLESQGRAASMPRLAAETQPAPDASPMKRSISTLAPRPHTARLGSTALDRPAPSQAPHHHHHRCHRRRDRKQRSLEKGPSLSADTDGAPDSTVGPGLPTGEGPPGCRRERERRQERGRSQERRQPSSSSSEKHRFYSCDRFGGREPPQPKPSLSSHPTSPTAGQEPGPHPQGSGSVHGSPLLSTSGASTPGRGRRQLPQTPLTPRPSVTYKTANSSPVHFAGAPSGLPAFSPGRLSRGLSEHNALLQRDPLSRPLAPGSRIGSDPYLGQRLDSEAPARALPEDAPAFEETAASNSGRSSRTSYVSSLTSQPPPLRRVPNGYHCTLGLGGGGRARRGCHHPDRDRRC
UniProt Q9JK66: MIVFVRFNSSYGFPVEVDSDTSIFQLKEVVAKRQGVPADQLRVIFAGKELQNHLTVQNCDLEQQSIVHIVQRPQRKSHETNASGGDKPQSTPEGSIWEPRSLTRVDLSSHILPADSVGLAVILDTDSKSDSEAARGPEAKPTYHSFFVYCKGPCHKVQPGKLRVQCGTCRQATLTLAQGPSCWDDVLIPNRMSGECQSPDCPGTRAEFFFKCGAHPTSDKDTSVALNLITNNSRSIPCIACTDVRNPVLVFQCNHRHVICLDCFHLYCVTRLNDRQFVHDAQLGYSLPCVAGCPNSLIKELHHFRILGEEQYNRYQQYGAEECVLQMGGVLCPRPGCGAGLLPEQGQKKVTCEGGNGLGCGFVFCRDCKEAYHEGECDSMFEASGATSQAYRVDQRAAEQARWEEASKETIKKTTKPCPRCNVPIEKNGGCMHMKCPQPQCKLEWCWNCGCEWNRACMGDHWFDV
UniProt Q05086: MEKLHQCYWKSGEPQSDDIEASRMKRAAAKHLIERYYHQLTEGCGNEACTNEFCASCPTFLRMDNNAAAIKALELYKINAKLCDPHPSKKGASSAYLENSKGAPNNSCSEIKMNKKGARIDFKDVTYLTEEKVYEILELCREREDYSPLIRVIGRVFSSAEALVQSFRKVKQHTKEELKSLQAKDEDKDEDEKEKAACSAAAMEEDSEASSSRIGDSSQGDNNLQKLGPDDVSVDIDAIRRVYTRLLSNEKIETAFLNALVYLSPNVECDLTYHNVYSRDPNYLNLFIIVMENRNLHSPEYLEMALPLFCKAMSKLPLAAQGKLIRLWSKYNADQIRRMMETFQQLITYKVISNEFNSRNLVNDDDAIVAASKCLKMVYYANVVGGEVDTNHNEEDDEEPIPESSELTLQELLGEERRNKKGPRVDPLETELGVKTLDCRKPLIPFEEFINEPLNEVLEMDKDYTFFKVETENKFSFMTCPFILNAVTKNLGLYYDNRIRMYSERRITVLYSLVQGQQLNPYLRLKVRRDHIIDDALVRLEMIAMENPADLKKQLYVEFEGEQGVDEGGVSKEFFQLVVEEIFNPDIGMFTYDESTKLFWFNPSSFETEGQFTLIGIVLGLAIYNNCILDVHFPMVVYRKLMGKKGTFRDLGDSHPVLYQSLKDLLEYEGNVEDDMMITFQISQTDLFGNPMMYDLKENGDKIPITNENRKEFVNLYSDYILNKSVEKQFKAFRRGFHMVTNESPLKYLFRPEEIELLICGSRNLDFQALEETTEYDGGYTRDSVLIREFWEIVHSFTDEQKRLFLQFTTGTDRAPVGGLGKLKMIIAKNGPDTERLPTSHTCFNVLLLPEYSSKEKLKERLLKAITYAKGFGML
UniProt O60260: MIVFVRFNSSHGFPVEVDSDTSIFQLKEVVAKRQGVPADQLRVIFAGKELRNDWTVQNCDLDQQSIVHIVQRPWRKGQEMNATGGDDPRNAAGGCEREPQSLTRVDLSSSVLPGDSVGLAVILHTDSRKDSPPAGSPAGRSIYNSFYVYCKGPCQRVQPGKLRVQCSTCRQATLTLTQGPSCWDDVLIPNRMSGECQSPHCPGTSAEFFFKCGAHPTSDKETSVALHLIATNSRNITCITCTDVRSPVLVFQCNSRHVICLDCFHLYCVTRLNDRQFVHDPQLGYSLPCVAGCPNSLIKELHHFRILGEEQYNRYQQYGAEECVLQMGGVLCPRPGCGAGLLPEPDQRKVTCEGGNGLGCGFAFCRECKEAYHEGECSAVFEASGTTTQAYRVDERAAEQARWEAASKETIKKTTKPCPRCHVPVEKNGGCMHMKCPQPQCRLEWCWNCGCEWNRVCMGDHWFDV

Row | binding [1] | Substance | also measured
1 | binds | ubiquitin-protein ligase E3A (UBE3A), HA-tagged (from UniProt Q05086 1-875) (enzyme) | 
2 | binds | Parkin, HA-tagged (from UniProt O60260 1-465) (enzyme) | 
3 |  | CaV2.2α1 subunit, endogenous in rat brain (from UniProt Q02294 1-2336) | binding [2]: binds
4 |  | CaV2.2α1 subunit of the N-type calcium channel, GFP-tagged (from UniProt Q05152 1-2339) | binding [3]: binds

From paper PMC5619756
